4 substances from PMC2718698, “The TCL1A Oncoprotein Interacts Directly with the NF-κB Inhibitor IκB” (PLoS ONE, 2009) can be followed below.

The chains behind the UniProt entries cited, without tags or fusion partners. Where a name states a change or a piece, a line headed by the entry shows the natural chain unless it says otherwise.
UniProt P56279: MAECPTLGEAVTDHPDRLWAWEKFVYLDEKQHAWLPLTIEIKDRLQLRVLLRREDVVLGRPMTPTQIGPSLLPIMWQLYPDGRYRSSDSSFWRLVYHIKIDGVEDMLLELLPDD
UniProt P25963: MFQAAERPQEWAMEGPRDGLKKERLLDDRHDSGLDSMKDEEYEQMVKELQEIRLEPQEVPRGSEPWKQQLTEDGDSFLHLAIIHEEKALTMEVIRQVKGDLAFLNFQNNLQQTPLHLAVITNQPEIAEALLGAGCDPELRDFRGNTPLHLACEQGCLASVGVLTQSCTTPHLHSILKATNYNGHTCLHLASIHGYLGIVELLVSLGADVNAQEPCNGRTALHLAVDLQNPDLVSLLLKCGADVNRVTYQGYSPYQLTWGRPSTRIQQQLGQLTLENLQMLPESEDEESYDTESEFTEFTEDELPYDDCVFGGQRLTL

Test [1] deals with FLAG-TCL1A (human) (UniProt P56279). The experiment in a line: co-IP; 293 cells transiently transfected with pCMV2-FLAG-TCL1A and pCMV-IκBα; extracts with mouse anti-Flag antibody 16 h, protein G-Sepharose; immunoblot. (A western blot detects proteins with antibodies after separation by electrophoresis.)
Test [2] concerns the target GST-TCL1A (human) (UniProt P56279). The experiment in a line: pull-down; GST proteins on glutathione-sepharose beads incubated with rabbit reticulocyte lysates containing [35S]-labeled translated IκBα or IκBα(1–253); 12% SDS-PAGE, autoradiography; only the target purified.
The target of test [3] is TCL1A two-hybrid bait (pGBT10-TCL1A) (human) (UniProt P56279). The experiment in a line: two-hybrid; screen in yeast strain HF7c; bait pGBT10-TCL1A, peripheral blood mononuclear cell cDNA library in pGAD; HIS+ βGAL+ colonies.

Results are given in words; binding and its absence hold for the method and conditions named. For some of these results: In cells and extracts the contact can be indirect. Some binding calls cover weakened binding; strength is not graded here.

Take “IκBα over-expressed in 293 cells (pCMV-IκBα) (from UniProt P25963 1-317)”: the binding entry in test [1] is listed as “binds”.
As for “[35S]-labeled IκBα(1–253) (from UniProt P25963 1-253) (domain or fragment)”, the binding result in test [2] is given as “binds”.
As to “[35S]-labeled IκBα (from UniProt P25963 1-317)”, the binding entry in test [2] is reported as “binds”.
As for “IκBα residues 73–317 (two-hybrid prey) (from UniProt P25963 73-317) (domain or fragment)”, the binding entry in test [3] is reported as “binds”.
